# According to the supplement of paper PMC8728848:
# This is one part of the list.
# B1: LF82 (Escherichia coli) (protein)
# chain: ADWGPCRTASGDPFIFVTSFTKNIQNPTDNVTGQTYPDFYQWALGDKYSGVCECPSPNPTEARPTLYKTESTLAAGHNSTYFKITNNLEVSTRVYIANVGNVQVPFINKSNSQPGRECDQPTFGWTTGSKGQLSLYIAKPFVGEQNIPQTIIVSVFGTKKENVYSSVPISQVLLSGKVTVTQGCELAAGTSLDIDFGEYQAHDFKGRTGQPPQNVQKIQKELTFNCTNISDGVHIYLSLEGTPNAAYPSAISLGNADVGAVIEDGKGNILKPNDSNSLLEMNPGSLYEYVKRKVTTTITAYPVSTTGKLPAAGDYSGVATMHVELDGGGGGGGGGGATTDLGAKGTLKFSLKISQGHHHHHH
# Key:
# Test in all cases: glycan array binding signal (z-score within array); higher = stronger binding
# Settings in all cases: glycan notation: IUPAC condensed, linker removed
# Fuc(a1-2)Gal = target: Fuc(a1-2)Gal
# Summary of the method: (§1)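 The binding signal is a Z-score computed within each array. Data were drawn from 3228 arrays in the Consortium for Functional Glycomics database, restricted to those with a known protein sequence. Scores were averaged over arrays of the same protein sequence at different concentrations or buffers, and over linkers, and negative values can be taken as non-binding.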
# Fuc(a1-2)Gal(b1-3)GalNAc = target: Fuc(a1-2)Gal(b1-3)GalNAc
# Summary of the method: as §1
# [1] = target: Fuc(a1-2)Gal(b1-3)GalNAc(a1-3)[Fuc(a1-2)]Gal(b1-4)Glc
# Summary of the method: as §1
# [2] = target: Fuc(a1-2)Gal(b1-3)GalNAc(a1-3)[Fuc(a1-2)]Gal(b1-4)GlcNAc
# Summary of the method: as §1
# [3] = target: Fuc(a1-2)Gal(b1-3)GalNAc(b1-3)Gal
# Summary of the method: as §1
# [4] = target: Fuc(a1-2)Gal(b1-3)GalNAc(b1-3)Gal(a1-4)Gal(b1-4)Glc
# Summary of the method: as §1
# [5] = target: Fuc(a1-2)Gal(b1-3)GalNAc(b1-4)[Neu5Ac(a2-3)]Gal(b1-4)Glc
# Summary of the method: as §1
# Fuc(a1-2)Gal(b1-3)GlcNAc = target: Fuc(a1-2)Gal(b1-3)GlcNAc
# Summary of the method: as §1
# [6] = target: Fuc(a1-2)Gal(b1-3)GlcNAc(b1-2)Man(a1-3)[Fuc(a1-2)Gal(b1-3)GlcNAc(b1-2)Man(a1-6)]Man(b1-4)GlcNAc(b1-4)GlcNAc
# Summary of the method: as §1
# [7] = target: Fuc(a1-2)Gal(b1-3)GlcNAc(b1-2)Man(a1-3)[Fuc(a1-2)Gal(b1-3)GlcNAc(b1-2)Man(a1-6)]Man(b1-4)GlcNAc(b1-4)[Fuc(a1-6)]GlcNAc
# Summary of the method: as §1
# [8] = target: Fuc(a1-2)Gal(b1-3)GlcNAc(b1-3)Gal(b1-4)Glc
# Summary of the method: as §1
# [9] = target: Fuc(a1-2)Gal(b1-3)GlcNAc(b1-3)GalNAc
# Summary of the method: as §1
# [10] = target: Fuc(a1-2)Gal(b1-3)GlcNAc(b1-3)[Fuc(a1-2)Gal(b1-3)GlcNAc(b1-6)]GalNAc
# Summary of the method: as §1
# [11] = target: Fuc(a1-2)Gal(b1-3)GlcNAc(b1-3)[Gal(b1-4)GlcNAc(b1-6)]Gal(b1-4)Glc
# Summary of the method: as §1
# [12] = target: Fuc(a1-2)Gal(b1-3)GlcNAc(b1-3)[Neu5Ac(a2-6)Gal(b1-4)GlcNAc(b1-6)]Gal(b1-4)Glc
# Summary of the method: as §1
# [13] = target: Fuc(a1-2)Gal(b1-3)GlcNAc6S
# Summary of the method: as §1
# [14] = target: Fuc(a1-2)Gal(b1-3)[Fuc(a1-4)]GlcNAc
# Summary of the method: as §1
# [15] = target: Fuc(a1-2)Gal(b1-3)[Fuc(a1-4)]GlcNAc(b1-2)Man(a1-3)[Fuc(a1-2)Gal(b1-3)[Fuc(a1-4)]GlcNAc(b1-2)Man(a1-3)]Man(b1-4)GlcNAc(b1-4)GlcNAc
# Summary of the method: as §1
# [16] = target: Fuc(a1-2)Gal(b1-3)[Fuc(a1-4)]GlcNAc(b1-2)Man(a1-3)[Fuc(a1-2)Gal(b1-3)[Fuc(a1-4)]GlcNAc(b1-2)Man(a1-6)]Man(b1-4)GlcNAc(b1-4)[Fuc(a1-6)]GlcNAc(b1-4)[Fuc(a1-6)]GlcNAc
# Summary of the method: as §1
# [17] = target: Fuc(a1-2)Gal(b1-3)[Fuc(a1-4)]GlcNAc(b1-3)[Fuc(a1-3)[Gal(b1-4)]GlcNAc(b1-6)]Gal(b1-4)Glc
# Summary of the method: as §1
# [18] = target: Fuc(a1-2)Gal(b1-3)[Fuc(a1-4)]GlcNAc(b1-3)[Gal(b1-4)GlcNAc(b1-6)]Gal(b1-4)Glc
# Summary of the method: as §1
# Fuc(a1-2)Gal(b1-4)Glc = target: Fuc(a1-2)Gal(b1-4)Glc
# Summary of the method: as §1
# Fuc(a1-2)Gal(b1-4)Glc6S = target: Fuc(a1-2)Gal(b1-4)Glc6S
# Summary of the method: as §1
# Fuc(a1-2)Gal(b1-4)GlcNAc = target: Fuc(a1-2)Gal(b1-4)GlcNAc
# Summary of the method: as §1
# [19] = target: Fuc(a1-2)Gal(b1-4)GlcNAc(b1-2)Man
# Summary of the method: as §1
# [20] = target: Fuc(a1-2)Gal(b1-4)GlcNAc(b1-2)Man(a1-3)[Fuc(a1-2)Gal(b1-4)GlcNAc(b1-2)Man(a1-6)]Man(b1-4)GlcNAc(b1-4)GlcNAc
# Summary of the method: as §1
# [21] = target: Fuc(a1-2)Gal(b1-4)GlcNAc(b1-2)Man(a1-3)[Fuc(a1-2)Gal(b1-4)GlcNAc(b1-2)Man(a1-6)]Man(b1-4)GlcNAc(b1-4)[Fuc(a1-6)]GlcNAc
# Summary of the method: as §1
# [22] = target: Fuc(a1-2)Gal(b1-4)GlcNAc(b1-2)[Fuc(a1-2)Gal(b1-4)GlcNAc(b1-4)]Man(a1-3)[Fuc(a1-2)Gal(b1-4)GlcNAc(b1-2)Man(a1-6)]Man(b1-4)GlcNAc(b1-4)GlcNAc
# Summary of the method: as §1
# [23] = target: Fuc(a1-2)Gal(b1-4)GlcNAc(b1-3)Gal(b1-4)GlcNAc
# Summary of the method: as §1
# [24] = target: Fuc(a1-2)Gal(b1-4)GlcNAc(b1-3)Gal(b1-4)GlcNAc(b1-2)Man(a1-3)[Fuc(a1-2)Gal(b1-4)GlcNAc(b1-3)Gal(b1-4)GlcNAc(b1-2)Man(a1-6)]Man(b1-4)GlcNAc(b1-4)GlcNAc
# Summary of the method: as §1
binder,measurement,setting,value
B1,glycan array binding signal (z-score),Fuc(a1-2)Gal,-0.31
same,glycan array binding signal (z-score),Fuc(a1-2)Gal(b1-3)GalNAc,0.017
same,glycan array binding signal (z-score),[1],-0.382
same,glycan array binding signal (z-score),[2],-1.45
same,glycan array binding signal (z-score),[3],1.34
same,glycan array binding signal (z-score),[4],-0.902
same,glycan array binding signal (z-score),[5],3.03
same,glycan array binding signal (z-score),Fuc(a1-2)Gal(b1-3)GlcNAc,-0.323
same,glycan array binding signal (z-score),[6],1.37
same,glycan array binding signal (z-score),[7],-0.308
same,glycan array binding signal (z-score),[8],-0.758
same,glycan array binding signal (z-score),[9],-0.512
same,glycan array binding signal (z-score),[10],1.56
same,glycan array binding signal (z-score),[11],-1.77
same,glycan array binding signal (z-score),[12],-0.6
same,glycan array binding signal (z-score),[13],2.87
same,glycan array binding signal (z-score),[14],0.56
same,glycan array binding signal (z-score),[15],-0.701
same,glycan array binding signal (z-score),[16],-0.012
same,glycan array binding signal (z-score),[17],0.018
same,glycan array binding signal (z-score),[18],0.103
same,glycan array binding signal (z-score),Fuc(a1-2)Gal(b1-4)Glc,0.034
same,glycan array binding signal (z-score),Fuc(a1-2)Gal(b1-4)Glc6S,0.084
same,glycan array binding signal (z-score),Fuc(a1-2)Gal(b1-4)GlcNAc,0.558
same,glycan array binding signal (z-score),[19],0.247
same,glycan array binding signal (z-score),[20],-0.511
same,glycan array binding signal (z-score),[21],0.081
same,glycan array binding signal (z-score),[22],0.092
same,glycan array binding signal (z-score),[23],-0.593
same,glycan array binding signal (z-score),[24],0.375

# A second format for part of the listing above.
binder | measurement | setting | value
B1 | glycan array binding signal (z-score) | [1] | -0.382
same | glycan array binding signal (z-score) | [7] | -0.308
